From patent publication US4024248 (dated 1977)

Experiment: general procedure: solution-phase peptide synthesis; DCC/HOBt; active esters (OTcp, ONSu) with HOBt; azide coupling (tert.-butyl nitr)
Conditions: 2 HCl (intermediates)
[1] = coupling step, diacetate (final peptides)
[2] = late stage modification step, diacetate (final peptides)
[3] = coupling step, calculated on H-Arg-Pro-NH-C2 H5 . 2 HCl, diacetate (final peptides)
[4] = coupling step, calculated on Z-Ser-Tyr(Bzl)-OH, diacetate (final peptides)

Substance: H-Trp-Ser-Tyr-D-Lys(Boc)-Leu-Arg-Pro-Gly-NH2 ^. 2 HCl
- step yield [1]: 30%

Substance: H-D-Ser(Bu^t)-Ser(Bu^t)-Arg-Pro-NH-C2 H5 ^. 2 HCl
- step yield (coupling step, calculated on Z-D-Ser(Bu^t)-Otcp, diacetate (final peptides)): 62%

Substance: Glu-His-Trp-Ser-Tyr-D-Lys(Boc)-Leu-Arg-Pro-Gly-NH2 -diacetate
- step yield [1]: 17%

Substance: H-Ser-Tyr-D-Glu(OBu^t)-Leu-Arg-Pro-NH-C2 H5 ^. 2 HCl
- step yield (coupling step, calculated on Z-D-Glu(OBu^t)-Leu-Arg-Pro-NH-C2 H5, diacetate (final peptides)): 47%

Substance: H-D-Glu(OBu^t)-Leu-Arg-Pro-NH-C2 H5 ^. 2 HCl
- step yield [2]: 99.5%

Substance: H-D-Lys(Boc)-Leu-Arg-Pro-Gly-NH2 ^. 2 HCl
- step yield (coupling step, calculated on Z-D-Lys(Boc)-OTcp, diacetate (final peptides)): 74%
- difficulty met [1]: not uniform according to thin-layer chromatography (contamination by two by-products)

Substance: H-Ser-Tyr-D-Ser(Bu^t)-Leu-Arg-Pro-NH-C2 H5 ^. 2 HCl
- step yield (coupling step, calculated on Z-D-Ser(Bu^t) Leu-Arg-Pro-NH-C2 H5, diacetate (final peptides)): 75%

Substance: Glu-His-Trp-Ser-Tyr-D-Ser(Bu^t)-Ser(Bu^t)-Arg-Pro-NH-C2 H5
- step yield [1]: 38%

Substance: Z-D-Ser(Bu^t)-Leu-Arg-Pro-cyclopropyl amide
- step yield (coupling step, calculated on H-Arg-Pro-cyclopropylamide . 2 HCl, diacetate (final peptides)): 65%

Substance: Z-D-Ser(Bu^t)-Leu-Arg-Pro-NH-C2 H5
- step yield [3]: 71%

Substance: Glu-His-Trp-Ser-Tyr-D-Ser(Bu^t)-Leu-Arg-Pro-NH-C2 H5 -diacetate
- step yield [1]: 25%

Substance: Glu-His-Trp-Ser-Tyr-D-Glu(OBu^t)-Leu-Arg-Pro-NH-C2 H5 -diacetate
- step yield [1]: 30%

Substance: Cbz-[dK](Boc)LRPG-NH2
- step yield [1]: 77%

Substance: Z-Ser-Tyr(Bzl)-D-Ser(Bu^t)-Leu-Arg-Pro-cyclopropyl amide
- step yield [1]: 71%

Substance: H-D-Ser(Bu^t)-Leu-Arg-Pro-cyclopropyl amide . 2 HCl
- step yield [2]: 94%

Substance: H-Ser-Tyr-D-Ser(Bu^t)-Ser(Bu^t)-Arg-Pro-NH-C2 H5 ^. 2 HCl
- step yield [4]: 35%

Substance: Z-D-Glu(OBu^t)-Leu-Arg-Pro-NH-C2 H5
- step yield [3]: 81%

Substance: Glu-His-Trp-Ser-Tyr-D-Ser(Bu^t)-Leu-Arg-Pro-cyclopropyl amidediacetate
- step yield [1]: 32%

Substance: H-Ser-Tyr-D-Ser(Bu^t)-Leu-Arg-Pro-cyclopropyl amide . 2 HCl
- step yield [4]: 70%

Substance: H-D-Ser(Bu^t)-Leu-Arg-Pro-NH-C2 H5 ^. HCl
- step yield [2]: 93%

Square brackets hold non-standard residues; d marks the D form. * marks the point of attachment. Cbz = O=C(OCc1ccccc1)*; Boc = CC(C)(C)OC(=O)*
